In the supplement of paper PMC8728848:
The other results are listed elsewhere or left out.

How the values were obtained:
Assay in all cases: glycan array binding signal (z-score within array); higher = stronger binding
Settings in all cases: glycan notation: IUPAC condensed, linker removed
[1] = target: Neu5Ac(a2-6)Gal(b1-4)GlcNAc(b1-3)Gal(b1-4)GlcNAc(b1-3)GalNAc
How it was run: (§1)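 Columns mapping to the same glycan were averaged after glycan names were converted to IUPAC-condensed notation. The data come from 3228 arrays in the Consortium for Functional Glycomics database, limited to those with an available protein sequence. Binding is reported as a within-array Z-score averaged across arrays of one protein sequence and across linkers.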

[2] = target: Neu5Ac(a2-6)Gal(b1-4)GlcNAc(b1-3)Gal(b1-4)GlcNAc(b1-3)[Neu5Ac(a2-6)Gal(b1-4)GlcNAc(b1-3)Gal(b1-4)GlcNAc(b1-6)]GalNAc
How it was run: as §1

[3] = target: Neu5Ac(a2-6)Gal(b1-4)GlcNAc(b1-3)Gal(b1-4)GlcNAc(b1-6)[Gal(b1-3)]GalNAc
How it was run: as §1

[4] = target: Neu5Ac(a2-6)Gal(b1-4)GlcNAc(b1-3)Gal(b1-4)[Fuc(a1-3)]GlcNAc(b1-3)Gal(b1-4)[Fuc(a1-3)]GlcNAc
How it was run: as §1

[5] = target: Neu5Ac(a2-6)Gal(b1-4)GlcNAc(b1-3)GalNAc
How it was run: as §1

[6] = target: Neu5Ac(a2-6)Gal(b1-4)GlcNAc(b1-3)[Neu5Ac(a2-6)Gal(b1-4)GlcNAc(b1-6)]GalNAc
How it was run: as §1

[7] = target: Neu5Ac(a2-6)Gal(b1-4)GlcNAc(b1-6)GalNAc
How it was run: as §1

[8] = target: Neu5Ac(a2-6)Gal(b1-4)GlcNAc(b1-6)[Gal(b1-3)GlcNAc(b1-3)]Gal(b1-4)Glc
How it was run: as §1

[9] = target: Neu5Ac(a2-6)Gal(b1-4)GlcNAc(b1-6)[Gal(b1-3)]GalNAc
How it was run: as §1

[10] = target: Neu5Ac(a2-6)Gal(b1-4)GlcNAc6S
How it was run: as §1

[11] = target: Neu5Ac(a2-6)GalNAc
How it was run: as §1

[12] = target: Neu5Ac(a2-6)GalNAc(b1-4)GlcNAc
How it was run: as §1

[13] = target: Neu5Ac(a2-6)GalNAc(b1-4)GlcNAc6S
How it was run: as §1

[14] = target: Neu5Ac(a2-6)GlcNAc(b1-4)GlcNAc
How it was run: as §1

[15] = target: Neu5Ac(a2-6)GlcNAc(b1-4)GlcNAc(b1-4)GlcNAc
How it was run: as §1

[16] = target: Neu5Ac(a2-8)Neu5Ac
How it was run: as §1

[17] = target: Neu5Ac(a2-8)Neu5Ac(a2-3)Gal(b1-3)GalNAc(b1-4)[Neu5Ac(a2-3)]Gal(b1-4)Glc
How it was run: as §1

[18] = target: Neu5Ac(a2-8)Neu5Ac(a2-3)Gal(b1-3)GalNAc(b1-4)[Neu5Ac(a2-8)Neu5Ac(a2-3)]Gal(b1-4)Glc
How it was run: as §1

[19] = target: Neu5Ac(a2-8)Neu5Ac(a2-3)Gal(b1-4)Glc
How it was run: as §1

[20] = target: Neu5Ac(a2-8)Neu5Ac(a2-3)Gal(b1-4)GlcNAc
How it was run: as §1

[21] = target: Neu5Ac(a2-8)Neu5Ac(a2-3)[Gal(b1-3)GalNAc(b1-4)]Gal(b1-4)Glc
How it was run: as §1

[22] = target: Neu5Ac(a2-8)Neu5Ac(a2-3)[GalNAc(b1-4)]Gal(b1-4)Glc
How it was run: as §1

[23] = target: Neu5Ac(a2-8)Neu5Ac(a2-8)Neu5Ac
How it was run: as §1

[24] = target: Neu5Ac(a2-8)Neu5Ac(a2-8)Neu5Ac(a2-3)Gal(b1-4)Glc
How it was run: as §1

[25] = target: Neu5Ac(a2-8)Neu5Ac(a2-8)Neu5Ac(a2-3)[Gal(b1-3)GalNAc(b1-4)]Gal(b1-4)Glc
How it was run: as §1

[26] = target: Neu5Ac(a2-8)Neu5Ac(a2-8)Neu5Ac(a2-3)[GalNAc(b1-4)]Gal(b1-4)Glc
How it was run: as §1

[27] = target: Neu5Ac(a2-8)Neu5Ac(a2-8)Neu5Ac(a2-8)Neu5Ac(a2-3)[GalNAc(b1-4)]Gal(b1-4)Glc
How it was run: as §1

[28] = target: Neu5Ac(a2-8)Neu5Gc(a2-3)Gal(b1-4)GlcNAc
How it was run: as §1

[29] = target: Neu5Ac(b2-6)Gal(b1-4)GlcNAc
How it was run: as §1

[30] = target: Neu5Ac(b2-6)GalNAc
How it was run: as §1

[31] = target: Neu5Ac9Ac(a2-3)Gal(b1-4)GlcNAc
How it was run: as §1

[32] = target: Neu5Ac9Ac(a2-6)Gal(b1-4)GlcNAc
How it was run: as §1

[33] = target: Neu5Gc(a2-3)Gal(b1-3)GlcNAc
How it was run: as §1

[34] = target: Neu5Gc(a2-3)Gal(b1-3)[Fuc(a1-4)]GlcNAc
How it was run: as §1

[35] = target: Neu5Gc(a2-3)Gal(b1-4)Glc
How it was run: as §1

[36] = target: Neu5Gc(a2-3)Gal(b1-4)GlcNAc
How it was run: as §1

[37] = target: Neu5Gc(a2-3)Gal(b1-4)GlcNAc(b1-3)Gal(b1-4)GlcNAc(b1-2)Man(a1-3)[Neu5Gc(a2-3)Gal(b1-4)GlcNAc(b1-3)Gal(b1-4)GlcNAc(b1-2)Man(a1-6)]Man(b1-4)GlcNAc(b1-4)GlcNAc
How it was run: as §1

[38] = target: Neu5Gc(a2-3)Gal(b1-4)[Fuc(a1-3)]GlcNAc
How it was run: as §1

[39] = target: Neu5Gc(a2-6)Gal(b1-4)GlcNAc
How it was run: as §1

[40] = target: Neu5Gc(a2-6)GalNAc
How it was run: as §1

[41] = target: Neu5Gc(a2-8)Neu5Ac(a2-3)Gal(b1-4)GlcNAc
How it was run: as §1

[42] = target: Neu5Gc(a2-8)Neu5Gc(a2-3)Gal(b1-4)GlcNAc
How it was run: as §1

[43] = target: Neu5Gc(a2-8)Neu5Gc(a2-3)Gal(b1-4)GlcNAc(b1-3)Gal(b1-4)GlcNAc
How it was run: as §1

[44] = target: Neu5Gc(a2-8)Neu5Gc(a2-6)Gal(b1-4)GlcNAc
How it was run: as §1

[45] = target: Neu5Gc(b2-6)Gal(b1-4)GlcNAc
How it was run: as §1

B1: Blon0732mut (Bifidobacterium longum) (protein)
chain: MPTSEHKADDATRHLTLIPAPVTLEYTHGTALIGPLVTIEDADQSWETLPIEQLSDELRHRYGVTVLRRRTHGTVISLGLDSRLAHDEYTLDVSESEGIRVRGGGESGLRYGLQTLRQIIGQTSRAIPCLHIQDKPAFAVRAYSLDVTRGRVPTMEFLTWFVDQLALYKYNQFQLYVEHAFAFVELSEAWRGTDPLTAADITYLDEYCARRGIELVPSLATFGHMYMNLRTREHRGLGEFPEDADRPFSFIERMEHHTLNAADPKAHDFASRLIEEYAPLFRSKSFNIGGNETFDLGRGRSAQDAPEAGRDELYAGFVRDLCETLARHGRQPMLWADIALESPRTMDLLPGDITMLNWMYEPQIDESKIQTIATQGRRQFVCPAVRAWSRFFPDYAGAWLNTYHMALAGTKYDAEGMVVTDWGDYGHVNDPRLSVPGLCYGAQNAWNPIEIDAHEMNRRISALVYGDESGRIMDCLARIDSDGVSFPWDLAVQVLELEYGSGTGALNMDVAACMERSSGGKLTLDRTLGCDDARRRMLQWNRERIERRRDCDQVLRDCGDAFAGLDKGGLTAEFLSVMLDGQRLFNELGEELLALADGKDVGSGANRLAADLELWFERYRAQWLSVGRHAELARIAHVVWSLADILRRGAL
glycan array binding signal (z-score) [1]: -0.725 | glycan array binding signal (z-score) [2]: 1.06 | glycan array binding signal (z-score) [3]: -0.853 | glycan array binding signal (z-score) [4]: 2.6 | glycan array binding signal (z-score) [5]: 1.11 | glycan array binding signal (z-score) [6]: -0.111 | glycan array binding signal (z-score) [7]: 0.599 | glycan array binding signal (z-score) [8]: -0.702 | glycan array binding signal (z-score) [9]: 0.982 | glycan array binding signal (z-score) [10]: -0.982 | glycan array binding signal (z-score) [11]: -0.848 | glycan array binding signal (z-score) [12]: 0.695 | glycan array binding signal (z-score) [13]: -0.881 | glycan array binding signal (z-score) [14]: -0.729 | glycan array binding signal (z-score) [15]: 0.177 | glycan array binding signal (z-score) [16]: 0.726 | glycan array binding signal (z-score) [17]: -0.875 | glycan array binding signal (z-score) [18]: 1.11 | glycan array binding signal (z-score) [19]: -0.015 | glycan array binding signal (z-score) [20]: -0.577 | glycan array binding signal (z-score) [21]: -0.767 | glycan array binding signal (z-score) [22]: 0.328 | glycan array binding signal (z-score) [23]: 0.235 | glycan array binding signal (z-score) [24]: -0.167 | glycan array binding signal (z-score) [25]: 0.27 | glycan array binding signal (z-score) [26]: -0.916 | glycan array binding signal (z-score) [27]: -0.743 | glycan array binding signal (z-score) [28]: -0.49 | glycan array binding signal (z-score) [29]: -1.08 | glycan array binding signal (z-score) [30]: -1.24 | glycan array binding signal (z-score) [31]: -0.753 | glycan array binding signal (z-score) [32]: -0.165 | glycan array binding signal (z-score) [33]: -0.667 | glycan array binding signal (z-score) [34]: -0.316 | glycan array binding signal (z-score) [35]: 2.58 | glycan array binding signal (z-score) [36]: -1.19 | glycan array binding signal (z-score) [37]: -0.334 | glycan array binding signal (z-score) [38]: -0.603 | glycan array binding signal (z-score) [39]: 0.213 | glycan array binding signal (z-score) [40]: -0.617 | glycan array binding signal (z-score) [41]: -0.558 | glycan array binding signal (z-score) [42]: -0.813 | glycan array binding signal (z-score) [43]: -0.866 | glycan array binding signal (z-score) [44]: -0.874 | glycan array binding signal (z-score) [45]: -0.096
